Experimental data taken from US20230103352A1.
Results are given in words; binding and its absence hold for the method and conditions named. Binding seen in cells or lysates may run through a third protein. Some binding calls cover weakened binding; strength is not graded here.

Chains of the proteins cited; added tags and fusions are not shown.
UniProt P29351: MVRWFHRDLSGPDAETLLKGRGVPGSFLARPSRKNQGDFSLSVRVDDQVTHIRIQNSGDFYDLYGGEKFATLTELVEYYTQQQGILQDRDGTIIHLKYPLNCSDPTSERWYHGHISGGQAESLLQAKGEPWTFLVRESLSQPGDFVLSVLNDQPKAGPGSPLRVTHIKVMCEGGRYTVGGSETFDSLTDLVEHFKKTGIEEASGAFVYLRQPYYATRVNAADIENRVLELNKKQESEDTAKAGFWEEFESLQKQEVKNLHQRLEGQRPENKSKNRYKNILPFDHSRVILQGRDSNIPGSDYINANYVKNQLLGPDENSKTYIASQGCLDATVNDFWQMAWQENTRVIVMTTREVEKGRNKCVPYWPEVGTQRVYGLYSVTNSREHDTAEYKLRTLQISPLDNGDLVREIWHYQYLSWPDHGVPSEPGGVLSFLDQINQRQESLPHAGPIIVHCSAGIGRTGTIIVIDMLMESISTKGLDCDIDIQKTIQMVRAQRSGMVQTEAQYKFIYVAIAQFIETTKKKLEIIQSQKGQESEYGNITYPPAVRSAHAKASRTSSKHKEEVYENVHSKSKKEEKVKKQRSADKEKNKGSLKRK

Tests used:
Siglec G (mouse) [1] = molecular target: T1, Siglec G (mouse) (UniProt Q80ZE3); test: co-immunoprecipitation: Siglec G immunoprecipitated from CD24-/- mouse spleen cells stimulated for 30 minutes with 1 µg/ml CD24Fc, control Fc or PBS, Western blot with anti-SHP-1
T1 sequence (looked up): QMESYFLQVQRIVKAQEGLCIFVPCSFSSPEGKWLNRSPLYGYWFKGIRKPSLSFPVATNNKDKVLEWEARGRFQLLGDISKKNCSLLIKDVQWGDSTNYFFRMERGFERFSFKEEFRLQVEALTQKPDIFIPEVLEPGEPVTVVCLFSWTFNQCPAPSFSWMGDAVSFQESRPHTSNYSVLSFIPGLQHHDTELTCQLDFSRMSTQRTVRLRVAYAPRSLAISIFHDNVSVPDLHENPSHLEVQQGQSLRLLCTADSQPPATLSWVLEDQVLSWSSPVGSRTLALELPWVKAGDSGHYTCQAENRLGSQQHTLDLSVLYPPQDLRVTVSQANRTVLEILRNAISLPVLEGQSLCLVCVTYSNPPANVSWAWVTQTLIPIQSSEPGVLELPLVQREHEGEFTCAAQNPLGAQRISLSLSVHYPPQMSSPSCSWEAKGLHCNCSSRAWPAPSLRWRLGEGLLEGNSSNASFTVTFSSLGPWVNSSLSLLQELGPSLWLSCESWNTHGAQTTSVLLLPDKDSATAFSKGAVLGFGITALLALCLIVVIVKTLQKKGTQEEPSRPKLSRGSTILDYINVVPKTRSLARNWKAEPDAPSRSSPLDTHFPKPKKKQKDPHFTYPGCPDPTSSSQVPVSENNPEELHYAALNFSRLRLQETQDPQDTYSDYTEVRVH

Siglec G (mouse) [2] = molecular target: T1, Siglec G (mouse); test: co-immunoprecipitation: Siglec G immunoprecipitated from CD24Fc-stimulated CD24-/- spleen cells, probed with anti-SHP-1
Siglec G (mouse) [3] = molecular target: T1, Siglec G (mouse); test: co-immunoprecipitation: Siglec G immunoprecipitated from CD24-/- spleen cells stimulated with 1 µg/ml CD24Fc, probed with anti-SHP-1 (FIG. 5C)

Measured: binding

SHP-1 (from UniProt P29351 1-595) (enzyme)
binds: all assays above
